Measurements reported in doi:10.1101/2023.09.14.557851.
These are yes or no findings as the source states them, for the method shown. Binding seen in cells or lysates may run through a third protein. Some entries that bind do so weakly or less than the wild type. Sequences can lack the tags named with a protein.

Molecular target: T1, human β-glucocerebrosidase (human) (UniProt P04062)
T1 sequence: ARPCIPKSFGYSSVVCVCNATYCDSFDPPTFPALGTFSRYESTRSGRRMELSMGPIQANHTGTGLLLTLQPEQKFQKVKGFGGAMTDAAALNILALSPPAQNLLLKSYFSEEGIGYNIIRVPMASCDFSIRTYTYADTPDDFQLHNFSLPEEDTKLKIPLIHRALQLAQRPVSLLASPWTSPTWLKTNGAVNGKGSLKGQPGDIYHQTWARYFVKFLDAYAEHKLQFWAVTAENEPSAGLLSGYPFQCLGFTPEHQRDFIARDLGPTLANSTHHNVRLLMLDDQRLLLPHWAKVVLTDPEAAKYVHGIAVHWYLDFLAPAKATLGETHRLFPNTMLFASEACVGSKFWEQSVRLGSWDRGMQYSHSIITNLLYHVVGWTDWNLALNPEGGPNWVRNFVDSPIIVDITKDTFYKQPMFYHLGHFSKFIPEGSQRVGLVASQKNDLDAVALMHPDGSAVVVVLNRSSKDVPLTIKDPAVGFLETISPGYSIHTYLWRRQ
Test: co-IP; hGCase in GBA1+/+ and GBA1-/- human neuron lysates immunocaptured with hGCase-1/23 on Protein A Dynabeads (1 hour at RT); LIMP2 in the co-precipitates detected with a LIMP2 antibody

binding: binds
B1: lysosomal integral membrane protein-2 (receptor, UniProt Q14108 1-478)
chain: MGRCCFYTAGTLSLLLLVTSVTLLVARVFQKAVDQSIEKKIVLRNGTEAFDSWEKPPLPVYTQFYFFNVTNPEEILRGETPRVEEVGPYTYRELRNKANIQFGDNGTTISAVSNKAYVFERDQSVGDPKIDLIRTLNIPVLTVIEWSQVHFLREIIEAMLKAYQQKLFVTHTVDELLWGYKDEILSLIHVFRPDISPYFGLFYEKNGTNDGDYVFLTGEDSYLNFTKIVEWNGKTSLDWWITDKCNMINGTDGDSFHPLITKDEVLYVFPSDFCRSVYITFSDYESVQGLPAFRYKVPAEILANTSDNAGFCIPEGNCLGSGVLNVSICKNGAPIIMSFPHFYQADERFVSAIEGMHPNQEDHETFVDINPLTGIILKAAKRFQINIYVKKLDDFVETGDIRTMVFPVMYLNESVHIDKETASRLKSMINTTLIITNIPYIIMALGVFFGLVFTWLACKGQGSMDEGTADERAPLIRT
